# According to paper PMC4357730:
# By UniProt entry, the sequences of proteins in these tests, tags left out.
# UniProt Q13569, whole entry R275A: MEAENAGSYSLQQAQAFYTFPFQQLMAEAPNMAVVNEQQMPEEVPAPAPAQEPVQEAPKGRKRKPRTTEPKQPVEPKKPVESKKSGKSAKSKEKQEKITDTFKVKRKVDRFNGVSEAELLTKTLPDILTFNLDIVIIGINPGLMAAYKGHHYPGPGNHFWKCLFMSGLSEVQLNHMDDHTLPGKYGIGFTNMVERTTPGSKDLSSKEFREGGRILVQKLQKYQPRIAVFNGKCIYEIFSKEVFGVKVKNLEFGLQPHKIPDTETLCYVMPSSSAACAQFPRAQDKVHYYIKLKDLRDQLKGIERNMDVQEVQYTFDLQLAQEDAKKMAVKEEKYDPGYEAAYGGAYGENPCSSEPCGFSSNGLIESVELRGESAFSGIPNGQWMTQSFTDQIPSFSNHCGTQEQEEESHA
# Molecular target: hTDG-R275A (human) (UniProt Q13569)
# Test: 2-AP fluorescence base flipping
# Conditions: 5 uM protein, 170 nM DNA, no substantial increase (less flipping, not shown as loss of binding); 2-AP at position 10 (written A); dUF at position 11 (written U); AFM: 25 mM HEPES pH 7.5, 25 mM Na acetate, 10 mM Mg acetate, RT; 2-AP hTDG: 20 mM HEPES pH 7.0, 0.2 mM EDTA, 2.5 mM MgCl2, 100 mM NaCl, 25 C; recombinant protein; residues 1-410; label: 2-AP
sequence,measurement,value
ATGCATGCCAUGAGTCTAGAGG / CCTCTAGACTCGTGGCATGCAT [2-AP G:UF (G/J)],binding signal (2-AP intensity change (CPS)),9370

# Whether high values mean tight binding is not given here for every scale.
